These are yes or no findings as the source states them, for the method shown. In cells and extracts the contact can be indirect. Here binding means that the protein was enriched with, or labelled near, the bait; the list need not be complete.

Chains of the proteins cited; added tags and fusions are not shown.
UniProt Q80ZM7: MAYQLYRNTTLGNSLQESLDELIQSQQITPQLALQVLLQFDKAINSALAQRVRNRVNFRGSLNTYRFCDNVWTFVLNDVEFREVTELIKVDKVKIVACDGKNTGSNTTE
UniProt Q99PM3: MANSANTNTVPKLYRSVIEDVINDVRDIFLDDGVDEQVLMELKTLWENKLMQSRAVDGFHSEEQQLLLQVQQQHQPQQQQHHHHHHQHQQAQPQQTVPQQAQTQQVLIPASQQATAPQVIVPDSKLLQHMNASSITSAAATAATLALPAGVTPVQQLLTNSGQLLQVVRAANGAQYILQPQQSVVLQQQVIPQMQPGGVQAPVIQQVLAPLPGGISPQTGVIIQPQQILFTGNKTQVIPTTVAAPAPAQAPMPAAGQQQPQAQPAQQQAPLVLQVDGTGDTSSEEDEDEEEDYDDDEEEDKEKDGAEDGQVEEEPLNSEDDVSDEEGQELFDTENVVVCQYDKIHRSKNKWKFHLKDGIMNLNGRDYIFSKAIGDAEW

For this experiment, the target named is T1, TBPL2 (TATA binding protein paralogue) (mouse (endogenous in P14 ovary)) (UniProt Q6SJ95).
T1 sequence: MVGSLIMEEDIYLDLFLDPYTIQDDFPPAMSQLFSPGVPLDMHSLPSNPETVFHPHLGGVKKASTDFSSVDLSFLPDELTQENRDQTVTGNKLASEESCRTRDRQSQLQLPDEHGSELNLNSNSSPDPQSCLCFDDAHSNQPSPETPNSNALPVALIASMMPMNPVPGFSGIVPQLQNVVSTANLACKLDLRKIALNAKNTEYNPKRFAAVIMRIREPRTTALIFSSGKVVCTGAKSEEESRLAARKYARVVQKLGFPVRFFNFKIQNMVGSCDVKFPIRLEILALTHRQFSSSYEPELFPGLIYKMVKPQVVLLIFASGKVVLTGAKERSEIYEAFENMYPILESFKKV
Nature of the experiment: affinity purification with mass spectrometry.

Consider TFIIA-γ (from UniProt Q80ZM7 1-109), for which the binding entry was “binds”.
To TFIIA-αβ (from UniProt Q99PM3 1-378) belongs “binds”.

The record behind these values is article doi:10.1101/2020.06.08.118984 (bioRxiv, 2020).
